{"source": "PubChem BioAssay AID743454 (Peter MacCallum Cancer Centre, 2014)", "purpose": "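Search for knock-downs that restore vorinostat killing in resistant colon cancer cells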 (primary screen)", "cell system": "human HCT116-VR colon cancer cells, selected for vorinostat resistance", "reagents": "siRNA pool against human genes, 40 nM siRNA pool", "timing": "vorinostat for 24 h, read-out about 72 h after transfection", "treatment": "vorinostat at 2.5 µM final", "read-out": "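Cell viability by CellTiter-Fluor and caspase 3/7 activity by luminescence, each scaled to mock wells per plate, duplicates averaged, then robust z-scored over all plates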", "direction": "viability robust z-score: higher = more viable cells than screen typical; caspase robust z-score: higher = more caspase 3/7 activity than screen typical", "rule for the call": "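Hits are knock-downs in viability class RV1/RV2 or caspase class CA1/CA2, excluding ones that killed cells in the no-drug cell-count arm; hits then retested with single siRNAs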", "note": "This is one part, drawn at random, of about 18,000 deposited reagents. 450 of them (2.5%) count as active. 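Single biological run; no consistent viability z cut-off exists, so the class columns, not z-scores, define the calls.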"}
{"gene": "TUFT1 (tuftelin 1)", "viability hit class": "no change", "caspase hit class": "no change", "viability robust z-score": -1.7, "caspase robust z-score": 0.56, "outcome": "inactive"}
{"gene": "BASP1 (brain abundant membrane attached signal protein 1)", "viability hit class": "no change", "caspase hit class": "no change", "viability robust z-score": 0.39, "caspase robust z-score": 0.72, "outcome": "inactive"}
{"gene": "SLC25A21", "viability hit class": "no change", "caspase hit class": "no change", "viability robust z-score": 0.34, "caspase robust z-score": -0.01, "outcome": "inactive"}
{"gene": "PUS7L (pseudouridine synthase 7 like)", "viability hit class": "no change", "caspase hit class": "no change", "viability robust z-score": -1.02, "caspase robust z-score": -1.17, "outcome": "inactive"}
{"gene": "UNC45B (unc-45 myosin chaperone B)", "viability hit class": "no change", "caspase hit class": "no change", "viability robust z-score": -0.01, "caspase robust z-score": 2.43, "outcome": "inactive"}
{"gene": "E2F6 (E2F transcription factor 6)", "viability hit class": "no change", "caspase hit class": "no change", "viability robust z-score": 0.46, "caspase robust z-score": -0.4, "outcome": "inactive"}
{"gene": "CLMB (calcimembrin)", "viability hit class": "no change", "caspase hit class": "no change", "viability robust z-score": 1.15, "caspase robust z-score": 0.68, "outcome": "inactive"}
{"gene": "PCDHA12 (protocadherin alpha 12)", "viability hit class": "no change", "caspase hit class": "no change", "viability robust z-score": -0.83, "caspase robust z-score": -0.77, "outcome": "inactive"}
{"gene": "GPR146 (G protein-coupled receptor 146)", "viability hit class": "no change", "caspase hit class": "no change", "viability robust z-score": 0.71, "caspase robust z-score": 1.19, "outcome": "inactive"}
{"gene": "SNX27 (sorting nexin 27)", "viability hit class": "no change", "caspase hit class": "no change", "viability robust z-score": -1.48, "caspase robust z-score": 4.05, "outcome": "inactive"}
{"gene": "TTC39A (tetratricopeptide repeat domain 39A)", "viability hit class": "no change", "caspase hit class": "no change", "viability robust z-score": -1.48, "caspase robust z-score": 4.57, "outcome": "inactive"}
{"gene": "PRDX6 (peroxiredoxin 6)", "viability hit class": "no change", "caspase hit class": "no change", "viability robust z-score": -0.05, "caspase robust z-score": 1.14, "outcome": "inactive"}
{"gene": "ADAM23 (ADAM metallopeptidase domain 23)", "viability hit class": "no change", "caspase hit class": "no change", "viability robust z-score": 0.03, "caspase robust z-score": -0.02, "outcome": "inactive"}
{"gene": "KCTD4 (potassium channel tetramerization domain containing 4)", "viability hit class": "no change", "caspase hit class": "no change", "viability robust z-score": -1.03, "caspase robust z-score": 0.76, "outcome": "inactive"}
{"gene": "ICOSLG (inducible T cell costimulator ligand)", "viability hit class": "no change", "caspase hit class": "no change", "viability robust z-score": -0.26, "caspase robust z-score": 0.22, "outcome": "inactive"}
{"gene": "HACL2 (2-hydroxyacyl-CoA lyase 2)", "viability hit class": "no change", "caspase hit class": "no change", "viability robust z-score": -1.12, "caspase robust z-score": 2.73, "outcome": "inactive"}
{"gene": "PTH1R (parathyroid hormone 1 receptor)", "viability hit class": "no change", "caspase hit class": "no change", "viability robust z-score": 1, "caspase robust z-score": -0.04, "outcome": "inactive"}
{"gene": "SNX17 (sorting nexin 17)", "viability hit class": "no change", "caspase hit class": "no change", "viability robust z-score": 0.24, "caspase robust z-score": -0.04, "outcome": "inactive"}
{"gene": "PIGK (phosphatidylinositol glycan anchor biosynthesis class K)", "viability hit class": "no change", "caspase hit class": "no change", "viability robust z-score": -0.9, "caspase robust z-score": 0.62, "outcome": "inactive"}
{"gene": "FAM8A1 (family with sequence similarity 8 member A1)", "viability hit class": "no change", "caspase hit class": "no change", "viability robust z-score": 0.53, "caspase robust z-score": -0.66, "outcome": "inactive"}
{"gene": "CCNE2 (cyclin E2)", "viability hit class": "no change", "caspase hit class": "no change", "viability robust z-score": 0.55, "caspase robust z-score": -0.38, "outcome": "inactive"}

Entries listed so far whose target name begins with C or c:
{"gene": "CLMB (calcimembrin)", "viability hit class": "no change", "caspase hit class": "no change", "viability robust z-score": 1.15, "caspase robust z-score": 0.68, "outcome": "inactive"}
{"gene": "CCNE2 (cyclin E2)", "viability hit class": "no change", "caspase hit class": "no change", "viability robust z-score": 0.55, "caspase robust z-score": -0.38, "outcome": "inactive"}
